Experimental data: PubChem BioAssay AID1508588 (Peter MacCallum Cancer Centre, 2020)

- Screen: 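Knock-downs boosting vemurafenib effects on melanoma cell growth or lactate release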 (primary screen)
- System: human WM266.4 melanoma cells (BRAF V600 mutant)
- Reagent: siRNA pool against human genes, 40 nM
- Timing: 96 h from transfection to read-out
- Treatment: vemurafenib 300 nM (about IC25), added 48 h after transfection, for 48 h; comparison arm got DMSO vehicle only
- Measurement: 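Cell gain (DAPI nuclei at end minus before drug, mean of two replicates) and medium lactate by absorbance per cell, both as ratio to non-targeting siRNA, also grouped into fold-change classes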
- Direction: cell gain with vemurafenib: higher = more cell gain than with non-targeting siRNA; lactate per cell with vemurafenib: higher = more lactate made per cell
- Active means: 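Enhancement is called by pairing each knock-down's vehicle-arm and drug-arm fold-change classes for viability or glycolysis; which class combinations qualify is not given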
- Meaning of the calls: active = enhances vemurafenib effect; inactive = no enhancement seen
In all, the deposit lists about 18,000 reagents; below is a random part of them. 790 of them (4.4%) were called active. 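Calls rest on a combination of fold-change classes in drug and vehicle arms, not all shown here.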 Some reagents were tested in more than one well and are listed for each. Reagent sequences are not shown.

For PRKN (parkin RBR E3 ubiquitin protein ligase) the deposit lists cell gain with vemurafenib 0.85; lactate per cell with vemurafenib 0.41; inactive.
PRKN (parkin RBR E3 ubiquitin protein ligase) showed cell gain with vemurafenib 0.63; lactate per cell with vemurafenib 1.35; inactive.
SHISA3 (shisa family member 3) gave cell gain with vemurafenib 0.34; lactate per cell with vemurafenib 1.1; inactive.
Against PRKCG (protein kinase C gamma), the values are cell gain with vemurafenib 1.19; lactate per cell with vemurafenib 0.36; inactive.
RYK (receptor like tyrosine kinase) scored cell gain with vemurafenib 0.92; lactate per cell with vemurafenib 1.02; inactive.
Depletion of UGT3A1 (UDP glycosyltransferase family 3 member A1) resulted in: cell gain with vemurafenib 0.74; lactate per cell with vemurafenib 1.48; inactive.
After knock-down of CARMIL1 (capping protein regulator and myosin 1 linker 1) the results were cell gain with vemurafenib 0.22; lactate per cell with vemurafenib 0.96; inactive.
After knock-down of ADGRE1 (adhesion G protein-coupled receptor E1), the screen gave cell gain with vemurafenib 0.41; lactate per cell with vemurafenib 1.45; inactive.
With knock-down of PAGE2 (PAGE family member 2) the results were cell gain with vemurafenib 0.52; lactate per cell with vemurafenib 0.62; inactive.
After knock-down of HYCC1 (hyccin PI4KA lipid kinase complex subunit 1), the screen gave cell gain with vemurafenib 1.08; lactate per cell with vemurafenib 0.98; inactive.
Depletion of GPR3 (G protein-coupled receptor 3) gave: cell gain with vemurafenib 0.35; lactate per cell with vemurafenib 1.5; inactive.
For SP140 (SP140 nuclear body protein), the values are cell gain with vemurafenib 0.58; lactate per cell with vemurafenib 1.05; inactive.
For COLGALT2 (collagen beta(1-O)galactosyltransferase 2) the deposit lists cell gain with vemurafenib 1.06; lactate per cell with vemurafenib 1.15; inactive.
ADGRA1 (adhesion G protein-coupled receptor A1) gave cell gain with vemurafenib 0.57; lactate per cell with vemurafenib 1.19; inactive.
With knock-down of DVL3 (dishevelled segment polarity protein 3), the record shows cell gain with vemurafenib 0.91; lactate per cell with vemurafenib 0.88; inactive.
For NINJ2 (ninjurin 2), the entry reads cell gain with vemurafenib 0.7; lactate per cell with vemurafenib 0.83; inactive.
Depletion of NFYA (nuclear transcription factor Y subunit alpha) gave: cell gain with vemurafenib 0.4; lactate per cell with vemurafenib 1.43; inactive.
Knock-down of LUZP2 (leucine zipper protein 2) came out at: cell gain with vemurafenib 0.81; lactate per cell with vemurafenib 1.46; inactive.
After knock-down of PPM1N (protein phosphatase, Mg2+/Mn2+ dependent 1N (putative)), the screen gave cell gain with vemurafenib 1.3; lactate per cell with vemurafenib 0.72; inactive.
Depletion of SSPOP (SCO-spondin, pseudogene) resulted in: cell gain with vemurafenib 0.62; lactate per cell with vemurafenib 1.02; inactive.
Depletion of PPARGC1B (PPARG coactivator 1 beta) resulted in: cell gain with vemurafenib 0.38; lactate per cell with vemurafenib 1.19; inactive.

In a second layout: 4 of the entries above
gene,cell gain with vemurafenib,lactate per cell with vemurafenib,call
UGT3A1 (UDP glycosyltransferase family 3 member A1),0.74,1.48,inactive
CARMIL1 (capping protein regulator and myosin 1 linker 1),0.22,0.96,inactive
ADGRE1 (adhesion G protein-coupled receptor E1),0.41,1.45,inactive
PAGE2 (PAGE family member 2),0.52,0.62,inactive

Next entries follow.
Against MMP21 (matrix metallopeptidase 21), the entry reads cell gain with vemurafenib 0.72; lactate per cell with vemurafenib 0.64; inactive.
Silencing of DEPDC1B (DEP domain containing 1B) resulted in: cell gain with vemurafenib 0.68; lactate per cell with vemurafenib 1.12; inactive.
Depletion of BCL2 (BCL2 apoptosis regulator) came out at: cell gain with vemurafenib 0.38; lactate per cell with vemurafenib 0.71; inactive.
EDNRB (endothelin receptor type B) gave cell gain with vemurafenib 0.75; lactate per cell with vemurafenib 1.46; inactive.
Depletion of MT1H (metallothionein 1H) came out at: cell gain with vemurafenib 0.51; lactate per cell with vemurafenib 1.48; inactive.
With knock-down of ATG4D (autophagy related 4D cysteine peptidase), the record shows cell gain with vemurafenib 0.3; lactate per cell with vemurafenib 1.3; inactive.
Knock-down of SLC35D1 resulted in: cell gain with vemurafenib 1; lactate per cell with vemurafenib 1.16; inactive.
Against PDIA5 (protein disulfide isomerase family A member 5), the values are cell gain with vemurafenib 0.64; lactate per cell with vemurafenib 0.98; inactive.
Silencing of VPS28 (VPS28 subunit of ESCRT-I) resulted in: cell gain with vemurafenib 0.53; lactate per cell with vemurafenib 0.88; inactive.
TRAM2 (translocation associated membrane protein 2) gave cell gain with vemurafenib 0.16; lactate per cell with vemurafenib 0.68; inactive.
FOXJ3 (forkhead box J3) showed cell gain with vemurafenib 0.59; lactate per cell with vemurafenib 0.45; inactive.
With knock-down of SLC1A3, the record shows cell gain with vemurafenib 0.61; lactate per cell with vemurafenib 0.76; inactive.
FGD4 (FYVE, RhoGEF and PH domain containing 4) gave cell gain with vemurafenib 0.66; lactate per cell with vemurafenib 1.17; inactive.
After knock-down of VCF2 (VCP nuclear cofactor family member 2) the results were cell gain with vemurafenib -0.12; lactate per cell with vemurafenib -0.01; active.
Against LCA5L (lebercilin LCA5 like) the deposit lists cell gain with vemurafenib 0.89; lactate per cell with vemurafenib 1.37; inactive.
PAGE4 (PAGE family member 4) scored cell gain with vemurafenib 0.35; lactate per cell with vemurafenib 0.61; inactive.
Silencing of GCC1 (GRIP and coiled-coil domain containing 1) resulted in: cell gain with vemurafenib 0.31; lactate per cell with vemurafenib 1.12; inactive.
Knock-down of LDB1 (LIM domain binding 1) came out at: cell gain with vemurafenib 0.75; lactate per cell with vemurafenib 0.74; inactive.
Against C8orf76 (chromosome 8 open reading frame 76), the entry reads cell gain with vemurafenib 0.43; lactate per cell with vemurafenib 1.08; inactive.
